Laboratory results: PubChem BioAssay AID743121 (NCATS, 2013)
The whole screen tested about 26,000 reagents; this is a part drawn at random. 167 of them (0.63%) count as active. 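Calls are per gene from RSA p-values that are not deposited; an individual active-marked siRNA can sensitise only weakly.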 Entries without a mark were called inactive. Reagents against one gene are numbered here. Not all columns of the deposit are shown. Reagent sequences are not shown.

- Test: 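Partners whose loss is lethal together with topoisomerase I blockade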 (primary screen)
- Cells: MDA-MB-231 cells, a human breast cancer line
- Reagents: single siRNA against human genes, 20 nM siRNA (0.8 pmol per well)
- Timing: 120 h (drug added 48 h after transfection, read 72 h later)
- Challenge: camptothecin 20 nM (about EC30) for 72 h; vehicle 0.1% DMSO in parallel plates
- Detection: 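Cell viability by ATP luminescence (CellTiter-Glo) as % of non-targeting siRNA wells, and the log2 ratio of viability without drug over viability with camptothecin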
- Reading the numbers: log2 vehicle/camptothecin viability: higher = stronger sensitisation to camptothecin
- Rule for the call: 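Active genes have an RSA gene-level p-value below 0.001, computed from the ratios of their separate siRNAs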

Against HEMK2 #1, the entry reads log2 vehicle/camptothecin viability -0.376. Depletion of HEMK2 #2 came out at: log2 vehicle/camptothecin viability -0.207. HEMK2 #3 showed log2 vehicle/camptothecin viability -0.0273. After knock-down of HEMK2 #4, the record shows log2 vehicle/camptothecin viability -0.405. Against TRIM68 (tripartite motif containing 68) #1 the deposit lists log2 vehicle/camptothecin viability -0.615. TRIM68 (tripartite motif containing 68) #2 gave log2 vehicle/camptothecin viability -0.258.

Against TRIM68 (tripartite motif containing 68) #3, the values are log2 vehicle/camptothecin viability -0.0073. After knock-down of TRIM68 (tripartite motif containing 68) #4, the record shows log2 vehicle/camptothecin viability -0.13. With knock-down of TMPRSS13 (transmembrane serine protease 13) #1, the record shows log2 vehicle/camptothecin viability 0.3. After knock-down of TMPRSS13 (transmembrane serine protease 13) #2, the screen gave log2 vehicle/camptothecin viability 0.262. TMPRSS13 (transmembrane serine protease 13) #3 scored log2 vehicle/camptothecin viability 0.496. Against TMPRSS13 (transmembrane serine protease 13) #4 the deposit lists log2 vehicle/camptothecin viability -0.21.

For GP1BB (glycoprotein Ib platelet subunit beta) #1 the deposit lists log2 vehicle/camptothecin viability 1.27. Silencing of GP1BB (glycoprotein Ib platelet subunit beta) #2 came out at: log2 vehicle/camptothecin viability -0.0519. GP1BB (glycoprotein Ib platelet subunit beta) #3 scored log2 vehicle/camptothecin viability -0.33. REG3A (regenerating family member 3 alpha) #1 scored log2 vehicle/camptothecin viability -0.388. Knock-down of REG3A (regenerating family member 3 alpha) #2 gave: log2 vehicle/camptothecin viability -0.0533. REG3A (regenerating family member 3 alpha) #3 scored log2 vehicle/camptothecin viability 0.233.

Against REG3A (regenerating family member 3 alpha) #4 the deposit lists log2 vehicle/camptothecin viability -0.11. For DIO2 (iodothyronine deiodinase 2) #1, the values are log2 vehicle/camptothecin viability -0.159. Against DIO2 (iodothyronine deiodinase 2) #2, the entry reads log2 vehicle/camptothecin viability -0.611. Silencing of DIO2 (iodothyronine deiodinase 2) #3 came out at: log2 vehicle/camptothecin viability -0.184. After knock-down of KLK9 (kallikrein related peptidase 9) #1 the results were log2 vehicle/camptothecin viability -0.182. After knock-down of KLK9 (kallikrein related peptidase 9) #2, the screen gave log2 vehicle/camptothecin viability -0.282.

Depletion of KLK9 (kallikrein related peptidase 9) #3 gave: log2 vehicle/camptothecin viability -0.085. Against MC1R (melanocortin 1 receptor) #1 the deposit lists log2 vehicle/camptothecin viability 0.198. Knock-down of MC1R (melanocortin 1 receptor) #2 came out at: log2 vehicle/camptothecin viability 0.27. MC1R (melanocortin 1 receptor) #3 showed log2 vehicle/camptothecin viability -0.0955. MC1R (melanocortin 1 receptor) #4 gave log2 vehicle/camptothecin viability -0.576. SNRPD1 (small nuclear ribonucleoprotein D1 polypeptide) #1 showed log2 vehicle/camptothecin viability -0.117.

With knock-down of SNRPD1 (small nuclear ribonucleoprotein D1 polypeptide) #2, the screen gave log2 vehicle/camptothecin viability -0.0749. Knock-down of SNRPD1 (small nuclear ribonucleoprotein D1 polypeptide) #3 resulted in: log2 vehicle/camptothecin viability -0.664. ADCK5 (aarF domain containing kinase 5) #1 gave log2 vehicle/camptothecin viability -0.432. Knock-down of ADCK5 (aarF domain containing kinase 5) #2 resulted in: log2 vehicle/camptothecin viability -0.458. For ADCK5 (aarF domain containing kinase 5) #3 the deposit lists log2 vehicle/camptothecin viability -0.598. After knock-down of ADCK5 (aarF domain containing kinase 5) #4 the results were log2 vehicle/camptothecin viability -0.0412.

NPBWR2 (neuropeptides B and W receptor 2) #1 showed log2 vehicle/camptothecin viability 0.531. Depletion of NPBWR2 (neuropeptides B and W receptor 2) #2 resulted in: log2 vehicle/camptothecin viability 0.156. Depletion of NPBWR2 (neuropeptides B and W receptor 2) #3 gave: log2 vehicle/camptothecin viability -0.0541. For NPBWR2 (neuropeptides B and W receptor 2) #4 the deposit lists log2 vehicle/camptothecin viability 0.0209. For EPS15L1 (epidermal growth factor receptor pathway substrate 15 like 1) #1 the deposit lists log2 vehicle/camptothecin viability 0.924. Against EPS15L1 (epidermal growth factor receptor pathway substrate 15 like 1) #2, the values are log2 vehicle/camptothecin viability -0.131.

Against EPS15L1 (epidermal growth factor receptor pathway substrate 15 like 1) #3, the entry reads log2 vehicle/camptothecin viability 0.914. Silencing of EPS15L1 (epidermal growth factor receptor pathway substrate 15 like 1) #4 resulted in: log2 vehicle/camptothecin viability -0.153. Depletion of LTBP2 (latent transforming growth factor beta binding protein 2) #1 resulted in: log2 vehicle/camptothecin viability -0.198. Depletion of LTBP2 (latent transforming growth factor beta binding protein 2) #2 gave: log2 vehicle/camptothecin viability 0.533. LTBP2 (latent transforming growth factor beta binding protein 2) #3 gave log2 vehicle/camptothecin viability -0.147. For LTBP2 (latent transforming growth factor beta binding protein 2) #4, the entry reads log2 vehicle/camptothecin viability -0.065.

7 entries from above, ordered by “log2 vehicle/camptothecin viability”, low to high:
SNRPD1 (small nuclear ribonucleoprotein D1 polypeptide) #3 — log2 vehicle/camptothecin viability: -0.664
ADCK5 (aarF domain containing kinase 5) #3 — log2 vehicle/camptothecin viability: -0.598
MC1R (melanocortin 1 receptor) #4 — log2 vehicle/camptothecin viability: -0.576
ADCK5 (aarF domain containing kinase 5) #2 — log2 vehicle/camptothecin viability: -0.458
ADCK5 (aarF domain containing kinase 5) #1 — log2 vehicle/camptothecin viability: -0.432
SNRPD1 (small nuclear ribonucleoprotein D1 polypeptide) #1 — log2 vehicle/camptothecin viability: -0.117
SNRPD1 (small nuclear ribonucleoprotein D1 polypeptide) #2 — log2 vehicle/camptothecin viability: -0.0749
